Test results as given in patent publication US6207389A, “Methods of controlling T lymphocyte mediated immune responses” (HRC Research and Development Limited Partnership, priority 1995, dated 2001).
Not every detail of the peptide structures is certain; ends, links or a residue may be inferred. No end group written: not given here.

Assays:
NOD mice [1] = assay: IDDM development after immunisation at five weeks (Example 9); assay type: in vivo, mouse
NOD mice [2] = assay: Humoral antibody response after immunisation (Example 9); assay type: in vivo, mouse
[3] = tested on: PBMC from children with recent onset diabetes; assay: Proliferative response of PBMC to peptide fragments in the presence of IL2 (Example 4); assay type: cell-based, human; details: average; 3H thymidine cpm in peptide-stimulated culture divided by control culture; 1-30 μg peptide plus 10U IL2; PBMC from at least 3 children
Protocol: Cultures containing 5×10^4 cells were incubated for 7 days at 37° C. in serum-free HL-1 medium (Ventrex, Portland, Me.) containing 1 μg antigen per well for test samples.
After an overnight pulse of 1 μci ^3 H thymidine, cultures were harvested and submitted to liquid scintillation counting. Proliferation was expressed as cpm ^3 HTdR×10^-3.
Control cultures were stimulated with 1 μg ovalbumin or horse or human albumin. […] A 4 h. pulse with 1 μCi ^3 H thymidine was used.
Each synthetic peptide was tested with PBMC from at least 3 children with recent onset diabetes. Stimulation Index=^3 H Thymidine Incorporation in peptide-stimulated culture in cpm divided by Thymidine incorporation in control culture in cpm.
Peptides corresponding to stretches of the amino acid sequence of human p69 were also synthesised and the proliferative response to patient PBMC cultures to these peptides were similarly tested, in the presence of IL2.

EFKADEKKFWGKYL [ABBOS-short]
development of IDDM (NOD mice [1]; 50 μg subcutaneously in incomplete adjuvant, intraperitoneal booster a week later): complete protection against development of IDDM
development of IDDM (NOD mice [1]; 50 μg, single subcutaneous injection in incomplete adjuvant at five weeks): IDDM development was delayed but protection was less complete
humoral antibody response (NOD mice [2]; single subcutaneous injection): lower
humoral antibody response (NOD mice [2]; subcutaneous injection followed by intraperitoneal booster): massive humoral antibody response

KFWGKYLYEIAR [Peptide P2268]
Stimulation Index [3]: 1.88
